Experimental data as given in publication PMC12167373.

The chains behind the UniProt entries cited, without tags or fusion partners.
UniProt Q14694: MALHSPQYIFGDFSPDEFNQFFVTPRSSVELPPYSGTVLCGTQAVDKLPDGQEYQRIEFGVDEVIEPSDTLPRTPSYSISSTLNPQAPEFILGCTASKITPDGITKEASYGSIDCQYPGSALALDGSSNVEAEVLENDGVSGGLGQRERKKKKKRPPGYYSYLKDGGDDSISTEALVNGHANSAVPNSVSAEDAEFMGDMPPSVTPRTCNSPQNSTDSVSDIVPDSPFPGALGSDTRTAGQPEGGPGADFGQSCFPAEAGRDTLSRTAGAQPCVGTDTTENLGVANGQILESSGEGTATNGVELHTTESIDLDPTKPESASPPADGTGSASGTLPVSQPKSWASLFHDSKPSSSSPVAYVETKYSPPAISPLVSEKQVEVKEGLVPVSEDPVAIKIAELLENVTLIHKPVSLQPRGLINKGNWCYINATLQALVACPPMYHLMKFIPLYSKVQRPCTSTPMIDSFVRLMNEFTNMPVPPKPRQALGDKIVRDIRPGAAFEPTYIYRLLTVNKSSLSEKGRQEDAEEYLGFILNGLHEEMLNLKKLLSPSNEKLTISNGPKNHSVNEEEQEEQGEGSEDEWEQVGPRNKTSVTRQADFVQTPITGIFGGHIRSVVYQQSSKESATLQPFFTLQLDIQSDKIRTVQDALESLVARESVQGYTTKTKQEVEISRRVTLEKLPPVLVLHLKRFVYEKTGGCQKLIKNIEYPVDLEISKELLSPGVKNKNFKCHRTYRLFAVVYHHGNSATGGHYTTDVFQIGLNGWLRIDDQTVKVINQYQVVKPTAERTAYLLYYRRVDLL
UniProt P53350: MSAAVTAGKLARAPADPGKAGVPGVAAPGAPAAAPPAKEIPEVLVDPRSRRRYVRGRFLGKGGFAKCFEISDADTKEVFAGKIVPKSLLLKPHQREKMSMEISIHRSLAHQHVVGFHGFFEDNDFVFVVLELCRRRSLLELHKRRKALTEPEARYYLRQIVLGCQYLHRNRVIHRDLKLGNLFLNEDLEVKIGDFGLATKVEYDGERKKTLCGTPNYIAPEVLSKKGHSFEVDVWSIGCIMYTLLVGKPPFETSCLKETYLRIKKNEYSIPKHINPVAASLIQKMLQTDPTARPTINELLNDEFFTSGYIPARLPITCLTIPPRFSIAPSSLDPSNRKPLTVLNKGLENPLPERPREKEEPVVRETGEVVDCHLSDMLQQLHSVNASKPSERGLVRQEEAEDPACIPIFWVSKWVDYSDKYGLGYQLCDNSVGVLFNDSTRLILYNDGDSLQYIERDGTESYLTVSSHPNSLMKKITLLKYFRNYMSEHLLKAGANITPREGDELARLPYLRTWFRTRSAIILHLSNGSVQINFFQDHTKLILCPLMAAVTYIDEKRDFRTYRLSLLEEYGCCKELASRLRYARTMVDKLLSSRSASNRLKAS

Target: Ubiquitin-specific peptidase 10 (USP10), endogenous (human (endogenous in PANC-1 and MIAPaCa-2)) (UniProt Q14694)
Assay: affinity purification with mass spectrometry; endogenous USP10 purified by IP from PANC-1 and MIAPaCa-2 cells; shotgun mass spectrometry of the proteins found with it

“PLK1, endogenous (from UniProt P53350 1-603) (enzyme)” was tested, and the binding was “binds”.

These are yes or no findings as the source states them, for the method shown. Binding seen in cells or lysates may run through a third protein. Here binding means that the protein was enriched with, or labelled near, the bait; the list need not be complete.
